In publication PMC12493026:
No constants are given. Whether binding was seen depends on the method and setting. In cells and extracts the contact can be indirect. A yes stands for co-enrichment or nearness to the bait. Other partners may have been found.

The chains behind the UniProt entries cited, without tags or fusion partners.
UniProt Q8C6M1: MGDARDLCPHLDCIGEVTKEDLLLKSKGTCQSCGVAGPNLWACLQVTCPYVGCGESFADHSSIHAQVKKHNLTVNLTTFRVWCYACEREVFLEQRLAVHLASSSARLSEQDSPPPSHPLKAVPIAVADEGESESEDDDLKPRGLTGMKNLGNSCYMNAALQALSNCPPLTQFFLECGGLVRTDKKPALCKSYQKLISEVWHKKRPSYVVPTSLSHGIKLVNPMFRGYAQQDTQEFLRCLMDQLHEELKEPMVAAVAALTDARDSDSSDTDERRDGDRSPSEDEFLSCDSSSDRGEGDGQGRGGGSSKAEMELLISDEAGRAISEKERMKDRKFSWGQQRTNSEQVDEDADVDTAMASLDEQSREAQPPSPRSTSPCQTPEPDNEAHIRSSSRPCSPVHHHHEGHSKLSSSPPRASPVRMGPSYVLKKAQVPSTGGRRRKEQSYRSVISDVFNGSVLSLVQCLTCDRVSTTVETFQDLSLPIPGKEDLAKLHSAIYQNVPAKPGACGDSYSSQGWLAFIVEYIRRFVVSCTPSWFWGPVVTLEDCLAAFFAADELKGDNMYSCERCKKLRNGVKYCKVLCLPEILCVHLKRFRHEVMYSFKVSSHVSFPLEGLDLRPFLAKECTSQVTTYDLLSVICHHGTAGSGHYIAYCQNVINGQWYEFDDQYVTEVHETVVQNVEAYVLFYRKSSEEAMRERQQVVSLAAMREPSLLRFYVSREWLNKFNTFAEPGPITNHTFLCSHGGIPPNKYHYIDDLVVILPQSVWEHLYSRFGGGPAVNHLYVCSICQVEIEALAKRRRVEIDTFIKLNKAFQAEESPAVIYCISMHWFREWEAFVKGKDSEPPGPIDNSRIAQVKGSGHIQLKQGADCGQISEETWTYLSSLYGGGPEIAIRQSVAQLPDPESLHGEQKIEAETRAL
UniProt D4A523: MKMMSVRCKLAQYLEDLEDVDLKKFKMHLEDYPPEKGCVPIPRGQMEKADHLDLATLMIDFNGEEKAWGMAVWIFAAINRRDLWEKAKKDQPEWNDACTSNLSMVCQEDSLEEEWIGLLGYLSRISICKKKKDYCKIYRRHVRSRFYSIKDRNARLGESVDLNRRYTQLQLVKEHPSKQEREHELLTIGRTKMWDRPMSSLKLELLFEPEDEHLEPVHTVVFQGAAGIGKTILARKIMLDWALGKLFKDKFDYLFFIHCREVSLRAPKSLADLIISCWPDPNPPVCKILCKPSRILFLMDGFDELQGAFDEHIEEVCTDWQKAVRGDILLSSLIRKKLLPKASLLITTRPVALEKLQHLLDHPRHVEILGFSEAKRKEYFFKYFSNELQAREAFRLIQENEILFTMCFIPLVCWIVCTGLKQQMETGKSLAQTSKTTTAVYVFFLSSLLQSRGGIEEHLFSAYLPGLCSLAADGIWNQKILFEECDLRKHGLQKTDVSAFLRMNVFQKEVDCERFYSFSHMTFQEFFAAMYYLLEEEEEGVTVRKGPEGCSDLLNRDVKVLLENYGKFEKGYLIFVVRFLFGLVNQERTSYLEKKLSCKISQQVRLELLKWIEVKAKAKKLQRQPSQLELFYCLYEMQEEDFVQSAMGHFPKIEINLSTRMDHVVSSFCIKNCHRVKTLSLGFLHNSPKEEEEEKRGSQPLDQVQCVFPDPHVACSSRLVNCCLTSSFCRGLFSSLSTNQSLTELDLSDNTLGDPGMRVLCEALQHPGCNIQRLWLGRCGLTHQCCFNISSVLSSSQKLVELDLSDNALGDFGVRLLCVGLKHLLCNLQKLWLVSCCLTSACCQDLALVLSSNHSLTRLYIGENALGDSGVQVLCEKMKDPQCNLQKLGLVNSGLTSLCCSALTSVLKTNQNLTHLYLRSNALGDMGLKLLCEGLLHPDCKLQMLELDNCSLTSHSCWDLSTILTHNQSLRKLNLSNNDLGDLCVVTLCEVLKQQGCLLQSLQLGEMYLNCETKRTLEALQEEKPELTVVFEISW

Biological target: Flag-USP20 expressed in cardiomyocytes (UniProt Q8C6M1)
Assay: affinity purification with mass spectrometry; cardiomyocytes transfected with Flag-USP20, LPS/Nig treated; anti-Flag antibody and protein G-Sepharose beads; bound proteins analysed by LC-MS/MS

binding: binds
Substance: NLRP3, endogenous in cardiomyocytes (LC-MS/MS screen) (from UniProt D4A523 1-1035)
